B1: Q9UMF0 (protein, UniProt Q9UMF0 1-924, looked up)
chain: MPGPSPGLRRALLGLWAALGLGLFGLSAVSQEPFWADLQPRVAFVERGGSLWLNCSTNCPRPERGGLETSLRRNGTQRGLRWLARQLVDIREPETQPVCFFRCARRTLQARGLIRTFQRPDRVELMPLPPWQPVGENFTLSCRVPGAGPRASLTLTLLRGAQELIRRSFAGEPPRARGAVLTATVLARREDHGANFSCRAELDLRPHGLGLFENSSAPRELRTFSLSPDAPRLAAPRLLEVGSERPVSCTLDGLFPASEARVYLALGDQNLSPDVTLEGDAFVATATATASAEQEGARQLVCNVTLGGENRETRENVTIYSFPAPLLTLSEPSVSEGQMVTVTCAAGAQALVTLEGVPAAVPGQPAQLQLNATENDDRRSFFCDATLDVDGETLIKNRSAELRVLYAPRLDDSDCPRSWTWPEGPEQTLRCEARGNPEPSVHCARSDGGAVLALGLLGPVTRALSGTYRCKAANDQGEAVKDVTLTVEYAPALDSVGCPERITWLEGTEASLSCVAHGVPPPDVICVRSGELGAVIEGLLRVAREHAGTYRCEATNPRGSAAKNVAVTVEYGPRFEEPSCPSNWTWVEGSGRLFSCEVDGKPQPSVKCVGSGGATEGVLLPLAPPDPSPRAPRIPRVLAPGIYVCNATNRHGSVAKTVVVSAESPPEMDESTCPSHQTWLEGAEASALACAARGRPSPGVRCSREGIPWPEQQRVSREDAGTYHCVATNAHGTDSRTVTVGVEYRPVVAELAASPPGGVRPGGNFTLTCRAEAWPPAQISWRAPPGALNIGLSSNNSTLSVAGAMGSHGGEYECAATNAHGRHARRITVRVAGPWLWVAVGGAAGGAALLAAGAGLAFYVQSTACKKGEYNVQEAESSGEAVCLNGAGGGAGGAAGAEGGPEAAGGAAESPAEGEVFAIQLTSA
modifications: full-length
B2: P13645 (protein, UniProt P13645 1-584, looked up)
chain: MSVRYSSSKHYSSSRSGGGGGGGGCGGGGGVSSLRISSSKGSLGGGFSSGGFSGGSFSRGSSGGGCFGGSSGGYGGLGGFGGGSFRGSYGSSSFGGSYGGIFGGGSFGGGSFGGGSFGGGGFGGGGFGGGFGGGFGGDGGLLSGNEKVTMQNLNDRLASYLDKVRALEESNYELEGKIKEWYEKHGNSHQGEPRDYSKYYKTIDDLKNQILNLTTDNANILLQIDNARLAADDFRLKYENEVALRQSVEADINGLRRVLDELTLTKADLEMQIESLTEELAYLKKNHEEEMKDLRNVSTGDVNVEMNAAPGVDLTQLLNNMRSQYEQLAEQNRKDAEAWFNEKSKELTTEIDNNIEQISSYKSEITELRRNVQALEIELQSQLALKQSLEASLAETEGRYCVQLSQIQAQISALEEQLQQIRAETECQNTEYQQLLDIKIRLENEIQTYRSLLEGEGSSGGGGRGGGSFGGGYGGGSSGGGSSGGGHGGGHGGSSGGGYGGGSSGGGSSGGGYGGGSSSGGHGGSSSGGYGGGSSGGGGGGYGGGSSGGGSSSGGGYGGGSSSGGHKSSSSGSVGESSSKGPRY
modifications: full-length
B3: O43790 (protein, UniProt O43790 1-486, looked up)
chain: MTCGSYCGGRAFSCISACGPRPGRCCITAAPYRGISCYRGLTGGFGSHSVCGGFRAGSCGRSFGYRSGGVCGPSPPCITTVSVNESLLTPLNLEIDPNAQCVKQEEKEQIKSLNSRFAAFIDKVRFLEQQNKLLETKLQFYQNRECCQSNLEPLFEGYIETLRREAECVEADSGRLASELNHVQEVLEGYKKKYEEEVSLRATAENEFVALKKDVDCAYLRKSDLEANVEALIQEIDFLRRLYEEEIRVLQSHISDTSVVVKLDNSRDLNMDCIIAEIKAQYDDIVTRSRAEAESWYRSKCEEMKATVIRHGETLRRTKEEINELNRMIQRLTAEVENAKCQNSKLEAAVAQSEQQGEAALSDARCKLAELEGALQKAKQDMACLIREYQEVMNSKLGLDIEIATYRRLLEGEEQRLCEGVGSVNVCVSSSRGGVVCGDLCASTTAPVVSTRVSSVPSNSNVVVGTTNACAPSARVGVCGGSCKRC
modifications: full-length
B4: P01042 (protein, UniProt P01042 1-644, looked up)
chain: MKLITILFLCSRLLLSLTQESQSEEIDCNDKDLFKAVDAALKKYNSQNQSNNQFVLYRITEATKTVGSDTFYSFKYEIKEGDCPVQSGKTWQDCEYKDAAKAATGECTATVGKRSSTKFSVATQTCQITPAEGPVVTAQYDCLGCVHPISTQSPDLEPILRHGIQYFNNNTQHSSLFMLNEVKRAQRQVVAGLNFRITYSIVQTNCSKENFLFLTPDCKSLWNGDTGECTDNAYIDIQLRIASFSQNCDIYPGKDFVQPPTKICVGCPRDIPTNSPELEETLTHTITKLNAENNATFYFKIDNVKKARVQVVAGKKYFIDFVARETTCSKESNEELTESCETKKLGQSLDCNAEVYVVPWEKKIYPTVNCQPLGMISLMKRPPGFSPFRSSRIGEIKEETTVSPPHTSMAPAQDEERDSGKEQGHTRRHDWGHEKQRKHNLGHGHKHERDQGHGHQRGHGLGHGHEQQHGLGHGHKFKLDDDLEHQGGHVLDHGHKHKHGHGHGKHKNKGKKNGKHNGWKTEHLASSSEDSTTPSAQTQEKTEGPTPIPSLAKPGVTVTFSDFQDSDLIATMMPPISPAPIQSDDDWIPDIQIDPNGLSFNPISDFPDTTSPKCPGRPWKSVSEINPTTQMKESYYFDLTDGLS
modifications: full-length
B5: Q04760 (protein, UniProt Q04760 1-184, looked up)
chain: MAEPQPPSGGLTDEAALSCCSDADPSTKDFLLQQTMLRVKDPKKSLDFYTRVLGMTLIQKCDFPIMKFSLYFLAYEDKNDIPKEKDEKIAWALSRKATLELTHNWGTEDDETQSYHNGNSDPRGFGHIGIAVPDVYSACKRFEELGVKFVKKPDDGKMKGLAFIQDPDGYWIEILNPNKMATLM
modifications: full-length
B6: Q9UIC8 (protein, UniProt Q9UIC8 1-334, looked up)
chain: MATRQRESSITSCCSTSSCDADDEGVRGTCEDASLCKRFAVSIGYWHDPYIQHFVRLSKERKAPEINRGYFARVHGVSQLIKAFLRKTECHCQIVNLGAGMDTTFWRLKDEDLLPSKYFEVDFPMIVTRKLHSIKCKPPLSSPILELHSEDTLQMDGHILDSKRYAVIGADLRDLSELEEKLKKCNMNTQLPTLLIAECVLVYMTPEQSANLLKWAANSFERAMFINYEQVNMGDRFGQIMIENLRRRQCDLAGVETCKSLESQKERLLSNGWETASAVDMMELYNRLPRAEVSRIESLEFLDEMELLEQLMRHYCLCWATKGGNELGLKEITY
modifications: full-length
B7: Q6F5E8 (protein, UniProt Q6F5E8 1-1435, looked up)
chain: MAQTPDGISCELRGEITRFLWPKEVELLLKTWLPGEGAVQNHVLALLRWRAYLLHTTCLPLRVDCTFSYLEVQAMALQETPPQVTFELESLRELVLEFPGVAALEQLAQHVAAAIKKVFPRSTLGKLFRRPTPASMLARLERSSPSESTDPCSPCGGFLETYEALCDYNGFPFREEIQWDVDTIYHRQGCRHFSLGDFSHLGSRDLALSVAALSYNLWFRCLSCVDMKLSLEVSEQILHMMSQSSHLEELVLETCSLRGDFVRRLAQALAGHSSSGLRELSLAGNLLDDRGMTALSRHLERCPGALRRLSLAQTGLTPRGMRALGRALATNAAFDSTLTHLDLSGNPGALGASEDSGGLYSFLSRPNVLSFLNLAGTDTALDTVRGCSVGGWMTGRADWRAGRGGLGPPAGVANSLPPQLFAAVSRGCCTSLTHLDASRNVFSRTKSRAAPAALQLFLSRARTLRHLGLAGCKLPPDALRALLDGLALNTHLRDLHLDLSACELRSAGAQVIQDLVCDAGAVSSLDLADNGFGSDMVTLVLAIGRSRSLRHVALGRNFNVRCKETLDDVLHRIVQLMQDDDCPLQSLSVAESRLKLGASVLLRALATNPNLTALDISGNAMGDAGAKLLAKALRVNSRLRSVVWDRNHTSALGLLDVAQALEQNHSLKAMPLPLNDVAQAQRSRPELTARAVHQIQACLLRNNRADPASSDHTTRLQPLGLVSDPSEQEVNELCQSVQEHVELLGCGAGPQGEAAVRQAEDAIQNANFSLSILPILYEAGSSPSHHWQLGQKLEGLLRQVGEVCRQDIQDFTQATLDTARSLCPQMLQGSSWREQLEGVLAGSRGLPELLPEQLLQDAFTRLRDMRLSITGTLAESIVAQALAGLSAARDQLVESLAQQATVTMPPALPAPDGGEPSLLEPGELEGLFFPEEKEEEKEKDDSPPQKWPELSHGLHLVPFIHSAAEEAEPEPELAAPGEDAEPQAGPSARGSPSPAAPGPPAGPLPRMDLPLAGQPLRHPTRARPRPRRQHHHRPPPGGPQVPPALPQEGNGLSARVDEGVEEFFSKRLIQQDRLWAPEEDPATEGGATPVPRTLRKKLGTLFAFKKPRSTRGPRTDLETSPGAAPRTRKTTFGDLLRPPTRPSRGEELGGAEGDTSSPDPAGRSRPRYTRDSKAYSMILLPAEEEATLGARPDKRRPLERGETELAPSFEQRVQVMLQRIGVSRGSGGAEGKRKQSKDGEIKKAGSDGDIMDSSTEAPPISIKSRTHSVSADPSCRPGPGSQGPESATWKTLGQQLNAELRSRGWGQQDGPGPPSPGQSPSPCRTSPSPDSLGLPEDPCLGPRNEDGQLRPRPLSAGRRAVSVHEDQLQAPAERPLRLQRSPVLKRRPKLEAPPSPSLGSGLGTEPLPPQPTEPSSPERSPPSPATDQRGGGPNP
modifications: full-length
B8: Q13136 (protein, UniProt Q13136 1-1202, looked up)
chain: MMCEVMPTISEAEGPPGGGGGHGSGSPSQPDADSHFEQLMVSMLEERDRLLDTLRETQETLALTQGKLHEVGHERDSLQRQLNTALPQEFAALTKELNVCREQLLEREEEIAELKAERNNTRLLLEHLECLVSRHERSLRMTVVKRQAQSPAGVSSEVEVLKALKSLFEHHKALDEKVRERLRVALERCSLLEEELGATHKELMILKEQNNQKKTLTDGVLDINHEQENTPSTSGKRSSDGSLSHEEDLAKVIELQEIISKQSREQSQMKERLASLSSHVTELEEDLDTARKDLIKSEEMNTKLQRDVREAMAQKEDMEERITTLEKRYLAAQREATSVHDLNDKLENEIANKDSMHRQTEDKNRQLQERLELAEQKLQQTLRKAETLPEVEAELAQRVAALSKAEERHGNIEERLRQMEAQLEEKNQELQRARQREKMNEEHNKRLSDTVDKLLSESNERLQLHLKERMAALEDKNSLLREVESAKKQLEETQHDKDQLVLNIEALRAELDHMRLRGASLHHGRPHLGSVPDFRFPMADGHTDSYSTSAVLRRPQKGRLAALRDEPSKVQTLNEQDWERAQQASVLANVAQAFESDADVSDGEDDRDTLLSSVDLLSPSGQADAHTLAMMLQEQLDAINKEIRLIQEEKENTEQRAEEIESRVGSGSLDNLGRFRSMSSIPPYPASSLASSSPPGSGRSTPRRIPHSPAREVDRLGVMTLLPPSREEVRDDKTTIKCETSPPSSPRALRLDRLHKGALHTVSHEDIRDIRNSTGSQDGPVSNPSSSNSSQDSLHKAPKKKGIKSSIGRLFGKKEKGRPGQTGKEALGQAGVSETDNSSQDALGLSKLGGQAEKNRKLQKKHELLEEARRQGLPFAQWDGPTVVVWLELWVGMPAWYVAACRANVKSGAIMSALSDTEIQREIGISNPLHRLKLRLAIQEIMSLTSPSAPPTSRTTLAYGDMNHEWIGNEWLPSLGLPQYRSYFMECLVDARMLDHLTKKDLRGQLKMVDSFHRNSFQCGIMCLRRLNYDRKELERKREESQSEIKDVLVWSNDRVIRWILSIGLKEYANNLIESGVHGALLALDETFDFSALALLLQIPTQNTQARAVLEREFNNLLVMGTDRRFDEDDDKSFRRAPSWRKKFRPKDIRGLAAGSAETLPANFRVTSSMSSPSMQPKKMQMDGNVSGTQRLDSATVRTYSC
modifications: full-length

Assay: TMTcalibrator quantification of regulated proteins in AD CSF versus control
Set-up: species or system human
Conditions: CSF of AD patient versus control; non-modified peptides of each protein summed for three control and three AD cases

B1 and B2 are within 0.2 log units of each other in “Log2 AD/Control” value: 0.80 for the first, 0.66 for the second.

First: B3
Second: B4
The “Log2 AD/Control” value of the first is higher: 0.66 for the first, −0.67 for the second.

Going from B5 to B6, the “Log2 AD/Control” value rises from 0.71 to 1.10.

Compared with B7, B8 is higher in “Log2 AD/Control” value: −1.05 for the first, 0.85 for the second.
